The campaign covered roughly 1,200 compounds. Fewer than 10 were called active. The call rests on the fitted dose curve; in most records, active means well fitted curve in the direction sought with a large enough effect; inconclusive means small, poorly fitted or top-dose-only effect, or another doubt; inactive means no such curve, though single readings can be large or run the other way. Some of the results follow.

The experiment is described as follows: Confirmatory qHTS assay for inhibitors of Activation Induced Cytidine Deaminase (AID): UDG signals. Further: 0% is about no effect. Particulars: UDG coupled enzyme activity counter-screen; at 115 µM (top of the series) unless noted. Summed up:
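UDG readout, a counterscreen: AID (1 uM, 4/3x) plus UDG (2 U/mL, 4/3x) preincubated 10 min with compound (7.32 nM - 114 uM final), then 4 h with DJC20/DJC23 substrates at room temperature; NaOH added, fluorescence read at 560/665 nm.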
For the compound `Fc1cc(Br)ccc1Nc1c2c(nc3nc(-c4cccs4)nn13)CCCC2`, the activity change, negative = inhibition is inactive: 4.72%.

Turning to `CCn1cc(C(=O)NCc2ccccc2OC)c(=O)c2cc(S(=O)(=O)N3CCCCC3)ccc21`, the activity change, negative = inhibition was inactive: -14.6%.

With `Cc1ccc(C)c(OCCn2cc(C(=O)c3ccco3)c3ccccc32)c1`, the activity change, negative = inhibition is inactive: -1.66%.

In the case of `CCc1ccc(OCC(=O)N(Cc2ccc(Cl)cc2)C2CCS(=O)(=O)C2)cc1` (centres undefined), the activity change, negative = inhibition is inactive: -1.47%.

For the compound `Cc1cccc(NC(=O)c2c(NC(=O)C(F)(F)F)sc3c2CCCCC3)c1`, the activity change, negative = inhibition is inactive: 3.54%.

On to `CCCCN(CC)CCNC(=O)c1cc2c(=O)oc3ccc(C)cc3c2s1`, for which the activity change, negative = inhibition was inactive: 3.87%.

As for `O=C(NCCc1csc(-c2ccc(Cl)cc2)n1)c1cccs1`, the activity change, negative = inhibition was inactive: -5.22%.

As to `CCN(CC)C(=O)CSc1nc(-c2ccccc2F)nc2c1Cc1c(CO)cnc(C)c1O2`, the activity change, negative = inhibition was inactive: -0.876%.

In the case of `CN(c1ncnc2onc(-c3cccc(Cl)c3)c12)C1CCCCC1`, the activity change, negative = inhibition is inactive: -5.73%.

As for `Cc1ccc(Cc2nc3ccccc3nc2SCC(=O)N2CCCCC2)cc1`, the activity change, negative = inhibition is inactive: 9.18%.

`COc1ccc(CSc2nc3ccncc3n2Cc2nc(-c3ccc(OC)c(OC)c3)oc2C)cc1`: the activity change, negative = inhibition was inactive: 3.79%.

As to `CCCCSCCCNC(=O)c1cn(CC)c2ccc(S(=O)(=O)N(C)C3CCCCC3)cc2c1=O`, the activity change, negative = inhibition is inactive: -17.5%.

Take `Cc1ccc(-c2noc(CN(C(=O)c3ccc(C(C)(C)C)cc3)C(C)C)n2)cc1`: the activity change, negative = inhibition was inactive: -12.6%.

`CCOC(=O)C1=C(CN(CC)Cc2ccccc2)NC(=O)NC1c1ccc(Cl)cc1` (centres undefined): the activity change, negative = inhibition was inactive: -4.27%.

As for `CCOC(=O)c1cnn(-c2cccc(Cl)c2)c1C1CCN(C(=O)OC(C)(C)C)CC1`, the activity change, negative = inhibition is inactive: -10.2%.

As for `Cc1ccc(Nc2c3c(nc4ccccc24)CCC3)cc1F`, the activity change, negative = inhibition was inactive: -1.36%.

In the case of `CCN(C(=O)c1nn(C)c2c1CSc1ccccc1-2)c1cccc(C)c1`, the activity change, negative = inhibition was inactive: -5.02%.

For `CCC1=Nc2cc(C(=O)N3CCC(C)CC3)ccc2Sc2ccc(C)cc21`, the activity change, negative = inhibition was inactive: -10.5%.

In the case of `Cc1ccccc1-c1nc(CS(=O)CC(=O)N2CCN(c3cc(Cl)ccc3C)CC2)c(C)o1` (centres undefined), the activity change, negative = inhibition was inactive: -9.14%.

As for `Cc1[nH]c2ccccc2c1C(c1ccccc1)c1cccs1` (centres undefined), the activity change, negative = inhibition was inactive: -1.68%.

Turning to `Cc1ccsc1CN(Cc1ccco1)C(=O)c1ccc(Cl)cc1`, the activity change, negative = inhibition is inactive: 3.07%.

Take `Cc1nc2c(-c3ccccc3)c(C)nn2c(C)c1CCC(=O)N1CCN(c2ccc(F)cc2)CC1`: the activity change, negative = inhibition was inactive: 0.55%.

Turning to `O=C(NCCc1ccccc1)c1sc2ncccc2c1-n1cccc1`, the activity change, negative = inhibition is inactive: -7.47%.

For `C[C@]12C=CC(=O)C=C1CC[C@@H]1C2=CC[C@]2(C)[C@@H](C(=O)CN3CCN(c4cc(N5CCCC5)nc(N5CCCC5)n4)CC3)CC[C@@H]12`, the activity change, negative = inhibition was inactive: -7.26%.

For the compound `CCn1cc(C(=O)NCCc2ccc(C)cc2)c(=O)c2cc(S(=O)(=O)N3CCC(C)CC3)ccc21`, the activity change, negative = inhibition is inactive: -9.56%.

In the case of `Cc1ccccc1OCCCCn1c(CCNC(=O)C(C)(C)C)nc2ccccc21`, the activity change, negative = inhibition was inactive: -7.53%.

On to `Cc1cc(C)c(/C=C/c2onc(C)c2S(=O)(=O)N2CCC(C(=O)N3CCN(c4ccccc4)CC3)CC2)c(C)c1`, for which the activity change, negative = inhibition was inactive: -10.8%.

On to `O=C(CCCCn1c(=O)[nH]c2ccsc2c1=O)N1CCN(c2cccc(Cl)c2)CC1`, for which the activity change, negative = inhibition was inactive: -5.96%.

Turning to `Cc1ccc(-c2n[nH]c3c2C(c2cccc(O)c2)N(c2ccc(C(=O)O)cc2)C3=O)cc1` (centres undefined), the activity change, negative = inhibition was inactive: 3.33%.

For the compound `Cc1ccc(C(=O)Nc2ccc(S(=O)(=O)O)c3cc(S(=O)(=O)O)cc(S(=O)(=O)O)c23)cc1NC(=O)c1cccc(NC(=O)Nc2cccc(C(=O)Nc3cc(C(=O)Nc4ccc(S(=O)(=O)O)c5cc(S(=O)(=O)O)cc(S(=O)(=O)O)c45)ccc3C)c2)c1`, the activity change, negative = inhibition is inactive: -7.52%.

For `CN(Cc1ccc(F)cc1)S(=O)(=O)c1nnc(NC(=O)c2ccccc2Br)s1`, the activity change, negative = inhibition was inactive: 6.01%.

Turning to `CCN(CC)CC(C)CNC(=O)c1cc(-c2ccc(Br)s2)nc2ccccc12` (centres undefined), the activity change, negative = inhibition was inactive: -4.76%.

In the case of `COc1ccc(C)cc1NC(=O)c1ccc2c(SCC(=O)O)c3c(nc2c1)CCCC3`, the activity change, negative = inhibition was inactive: -1.88%.

Regarding `COc1ccc(-c2nc(CSCC(=O)N3CCN(c4cccc(C)c4C)CC3)c(C)o2)cc1OC`, the activity change, negative = inhibition was inactive: -5.7%.

For the compound `COc1cccc(CNC(=O)c2oc3c(c2C)-c2nn(Cc4cccc(Cl)c4)cc2CC3)c1OC`, the activity change, negative = inhibition was inactive: -5.41%.

Consider `Oc1ccc(NCc2ccccc2OCc2ccccc2F)cc1`, for which the activity change, negative = inhibition is inactive: -18.7%.

With `Cc1ccc(C)c(N2CCN(C(=O)c3ccc4c(c3)N(Cc3ccc(F)cc3)C(=O)c3ccccc3S4=O)CC2)c1` (centres undefined), the activity change, negative = inhibition was inactive: -5.84%.

In the case of `Cc1cc(N)c(-n2cc3c(c2-c2ccc(Br)cc2)c(=O)n(C)c(=O)n3C)cc1C`, the activity change, negative = inhibition is inactive: -5.86%.

`Cc1cccc(N2CCN(C(=O)c3ccc(CS(=O)c4cccc(Cl)c4)o3)CC2)c1C` (centres undefined): the activity change, negative = inhibition is inactive: -2.23%.

Take `O=C1c2ccccc2C(=O)c2c(NCCc3ccc(O)cc3)ccc(NCCc3ccc(O)cc3)c21`: the activity change, negative = inhibition is inactive: -0.428%.

With `CCC(C(=O)N1CCN(c2cc(C)ccc2C)CC1)n1nc(C)n2c(cc3occc32)c1=O` (centres undefined), the activity change, negative = inhibition is inactive: -15%.

For the compound `Cc1ccc(C)c(N2CCN(CCCNC(=O)c3ccc4nc(N5CCC(C)CC5)sc4c3)CC2)c1`, the activity change, negative = inhibition is inactive: -8.72%.

With `CCOc1ccc(C(=O)c2cn(Cc3cccc(OC)c3)c3cc4c(cc3c2=O)OCO4)cc1`, the activity change, negative = inhibition is inactive: -3.75%.

In the case of `Cc1ccc(S(=O)(=O)N2CCCC2C(=O)Nc2ccc(Br)cc2)cc1` (centres undefined), the activity change, negative = inhibition was inactive: -3.38%.

Turning to `CC(C)(C)OC(=O)N1CCC(c2c(C(=O)NCc3ccccc3)cnn2-c2ccc(F)cc2)CC1`, the activity change, negative = inhibition is inactive: -5.29%.

For the compound `CC(C)(C)C1CCc2c(sc(NC(=O)c3ccccc3F)c2C(=O)NCc2ccco2)C1` (centres undefined), the activity change, negative = inhibition is inactive: -16.7%.

Turning to `O=C(c1cccn1-c1nnc(N2CCCCC2)s1)N1CCN(c2ccc(Cl)cc2)CC1`, the activity change, negative = inhibition is inactive: -13.6%.

For `CCCOc1ccc(-c2cc(C(F)(F)F)c(C#N)c(SCCC(=O)O)n2)cc1`, the activity change, negative = inhibition is inactive: 1.26%.

Regarding `CC(=O)N1CCc2c(sc3c2c(=O)n(CCc2ccccc2)c(=O)n3Cc2ccccc2C)C1`, the activity change, negative = inhibition was inactive: -5.14%.

Take `Cc1cccc(C)c1NC(=O)CS(=O)(=O)c1nc(-c2ccc(Cl)cc2)cn1-c1ccccc1`: the activity change, negative = inhibition is inactive: -12.5%.

As for `COc1cccc(-n2c(-c3cccc(F)c3)nc3c(cnn3-c3ccc(C)cc3)c2=O)c1`, the activity change, negative = inhibition was inactive: -14%.

`CC(C)(C)c1ccc(-c2nc(SCC(=O)Nc3ccc(Cl)cc3)[nH]c(=O)c2C#N)cc1`: the activity change, negative = inhibition was inactive: -7.66%.

`CCN(CCCNC(=O)c1cc2c(Cl)nc3ccccc3c2s1)Cc1ccccc1`: the activity change, negative = inhibition is inactive: 1.54%.

On to `CCCN(C(=O)CCc1nc(-c2ccc(OC)cc2)no1)c1ccccc1F`, for which the activity change, negative = inhibition was inactive: -15.5%.

Consider `CC(C)(C)OC(=O)N1CCC(c2c(C(=O)NCCc3ccccc3)cnn2-c2ccc(F)cc2)CC1`, for which the activity change, negative = inhibition was inactive: -2.07%.

In the case of `O=C(NCCc1nc2ccccc2n1Cc1ccc(Cl)cc1Cl)c1ccco1`, the activity change, negative = inhibition was inactive: -8.16%.

For `Cc1cccc(-n2cnc3cc(C(=O)NCc4ccccc4Cl)ccc32)c1`, the activity change, negative = inhibition is inactive: 3.52%.

Take `COc1ccc(-c2nn(C)c3sc(C(=O)NCCN(C)C)cc23)cc1OC`: the activity change, negative = inhibition is inactive: -7.31%.

As to `Cc1cccn2c(=O)cc(COc3cccc(NC(=O)COc4ccc(F)cc4)c3)nc12`, the activity change, negative = inhibition was inactive: 5.69%.

With `CCCc1nc2ccccc2n2c(-c3ccccc3)c3c(=O)n(C)c(=O)n(C)c3c12`, the activity change, negative = inhibition was inactive: -2.27%.

Turning to `Fc1ccccc1Cn1c(-c2ccccc2)nc2ccccc21`, the activity change, negative = inhibition is inactive: -13.4%.

In the case of `Cc1ccc2c(c1)C(c1ccc(F)cc1)N(C(=O)c1ccc(OC(C)C)cc1)CC(=O)N2` (centres undefined), the activity change, negative = inhibition was inactive: -1.56%.

Consider `Cc1ccc(C)c(N2CCN(C(=O)c3cc4c(=O)n(Cc5cccs5)ccc4nc3C)CC2)c1`, for which the activity change, negative = inhibition was inactive: -4.74%.

For the compound `Cc1ccc(CSC2=Nc3ccccc3C3=NC(CCC(=O)NCc4cccs4)C(=O)N23)cc1` (centres undefined), the activity change, negative = inhibition was inactive: 3.12%.

Turning to `CCOc1ccccc1N(CC)C(=O)c1cc2c(=O)n(CC)c3ccccc3c2s1`, the activity change, negative = inhibition was inactive: -9.39%.

Regarding `COc1cc(NC(=O)CSc2nc3nc(C)c(Cc4ccccc4)c(C)n3n2)cc(OC)c1OC`, the activity change, negative = inhibition was inactive: -4.7%.

`CCCCC(CC)Cn1c(Oc2ccccc2)nc2c1c(=O)n(C)c(=O)n2C` (centres undefined): the activity change, negative = inhibition is inactive: 3.18%.

On to `CCc1ccc(CNC(=O)c2cnc3sc(N(CC)CC)nn3c2=O)cc1`, for which the activity change, negative = inhibition is inactive: -5.38%.

On to `Cc1ccc2c(C)c(C(=O)NCC(c3ccc(Cl)cc3)N3CCOCC3)oc2c1` (centres undefined), for which the activity change, negative = inhibition was inactive: -1.8%.

With `Cc1ccc(Cl)cc1NC(=O)Nc1cn(CC(C)C)c(=O)c2ccccc12`, the activity change, negative = inhibition was inactive: -2.69%.

In the case of `Cc1ccccc1C(=O)Nc1ccc(C(=O)OCc2cc(=O)n3c4c(sc3n2)CCCC4)cc1`, the activity change, negative = inhibition is inactive: -1.88%.

On to `Cc1ccc(Cl)cc1N(C)C(=O)c1cc2ccc3cccnc3c2[nH]1`, for which the activity change, negative = inhibition is inactive: 0.172%.

With `CN(Cc1ccco1)C(=O)c1ccc2c(c1)N(Cc1ccccc1F)C(=O)c1ccccc1S2`, the activity change, negative = inhibition is inactive: -0.417%.

Consider `CCC1CN(C(=O)N2CCC(C(=O)N3CCN(c4cccc(C)c4C)CC3)CC2)c2ccccc2O1` (centres undefined), for which the activity change, negative = inhibition was inactive: -8.39%.

`COc1ccc(N2CCN(C(=O)c3cc4c(-c5ccccc5F)nn(C)c4s3)CC2)cc1`: the activity change, negative = inhibition was inactive: -2.54%.

With `CCOc1ccc(CCNC(=O)c2ccc3c(c2)c(C)c(C)n3C)cc1`, the activity change, negative = inhibition was inactive: 6.28%.

For `Cc1[nH]n2c(=O)cc(-c3ccccc3Cl)nc2c1-c1ccccc1`, the activity change, negative = inhibition was inactive: 15.7%.

In the case of `CCn1cc(S(=O)(=O)c2ccccc2)c(=O)c2cc(F)c(N3CCCCCC3)cc21`, the activity change, negative = inhibition is inactive: -13.5%.

`Cc1ccc2c(c1)C(c1ccccc1)N(C(=O)COc1ccc(Cl)cc1Cl)CC(=O)N2` (centres undefined): the activity change, negative = inhibition is inactive: -12.5%.

For the origin of these results see PubChem BioAssay AID1347431 (National Center for Advancing Translational Sciences (NCATS), 2020).
